Where a SMILES comes first, the peptide text is derived from it.
Columns and labels:
Impα3 = conditions: 60 K/h, peptide 10 μM, importin 4 μM
ΔImpα3 = assay: Thermal denaturation of the ΔImpα3 complex followed by fluorescence and far-UV CD; set-up: species or system human; conditions: 60 K/h, peptide 10 μM, importin 4 μM
[1] = ellipticity at 222 nm, 298 to 343 K, pH 7.0
[2] = pH 7.0, 50-mM phosphate, 298 to 358 K

With `CC(=O)N[C@@H](Cc1ccc(O)cc1)C(=O)N[C@H](C(=O)N[C@@H](CC(N)=O)C(=O)N[C@@H](CCCNC(=N)N)C(=O)N1CCC[C@H]1C(=O)N[C@@H](CO)C(=O)N1CCC[C@H]1C(=O)NCC(=O)NCC(=O)N[C@@H](Cc1c[nH]cn1)C(=O)N[C@@H](CCC(=O)O)C(=O)N[C@@H](CCCNC(=N)N)C(=O)N[C@@H](CCCCN)C(=O)N[C@@H](CC(C)C)C(=O)N[C@H](C(=O)N[C@H](C(=O)N[C@@H](CCCCN)C(=O)N[C@@H](CC(C)C)C(=O)N[C@@H](CCC(N)=O)C(=O)N[C@@H](CC(N)=O)C(=O)N[C@@H](CO)C(=O)N[C@@H](CCC(=O)O)C(N)=O)[C@@H](C)O)C(C)C)[C@@H](C)O` [wt] (Ac-YTNRPSPGGHERKLVTKLQNSE-NH2) the “Difference in thermal denaturation midpoint between isolated Impα3 and the complex, far-UV CD” value (Impα3; [1]) was “no differences”, the “Variation of the apparent thermal denaturation midpoint of Impα3 on complex formation, fluorescence” value (Impα3; [2]) was “did not show a variation” and the “Difference in thermal denaturation midpoint between isolated ΔImpα3 and the complex, far-UV CD” value (ΔImpα3; [1]) was “no differences”. The “Variation of the apparent thermal denaturation midpoint of ΔImpα3 on complex formation, fluorescence” value (ΔImpα3; [2]) was “did not show a variation”.

— paper PMC7565984, “A Phosphorylation-Induced Switch in the Nuclear Localization Sequence of the Intrinsically Disordered NUPR1 Hampers Binding to Importin” (Biomolecules, 2020)
